{"source": "PubChem BioAssay AID2685", "about": "(National Center for Advancing Translational Sciences (NCATS), 2010)", "note": "Screen size: about 320,000 compounds; about 2,100 (0.66%) were called active. Inconclusive means that the source gave no clear call. Such entries were picked first, then a sample of the others. Calls follow the shape of the dose curve; as a rule, active = well fitted inhibition curve with a large enough effect in the signal ratio, with a control signal flat (not every such curve was filed as active); inconclusive = small, poorly fitted or top-dose-only effect, or effect the other way, or a change in a side signal; inactive = flat fitted curve, though single readings scatter; the % refers to the signal ratio. A potency beside an inconclusive call is a rough fit, not a confirmed value.", "data": [{"experiment": "qHTS Assay for Lipid Storage Modulators in Drosophila S3 Cells; also: potency is read from the fitted curve at half-maximal effect; as to lipid storage change, negative = inhibition: % is scaled to controls: 0 for no effect and ±100 for the full control effect", "conditions": "BODIPY lipid droplet fluorescence, 18-24 h, cells fed with added oleic acid; lipid storage change, negative = inhibition: at 46.1 µM (top of the series) unless noted", "how_it_was_run": "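Drosophila S3 cells got compounds at several concentrations plus oleic acid (400 uM solution). Laser-scanning cytometry with 488 nm excitation read lipid droplets at 500-530 nm and cells at 575-640 nm. Percent activity was relative to 20 uM Triacsin C.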", "values": [{"compound": "CC1CCCN(C(=O)N2c3ccccc3Sc3ccccc32)C1", "note": "(configuration not stated)", "Potency": "inconclusive: 0.0052 µM [falling, full curve]"}, {"compound": "COc1ccc(/C=N/NC(=O)C(O)(c2ccccc2)c2ccccc2)cc1OC", "lipid storage change, negative = inhibition": "inactive: 22.7%"}, {"compound": "Cc1ccc(Nc2cc(C)nc(-c3ccccc3O)n2)cc1", "Potency": "inconclusive: 0.461 µM [rising, full curve]"}, {"compound": "Cc1ccc2nc(/C(C#N)=C\\c3cc(O)ccc3[N+](=O)[O-])[nH]c2c1", "lipid storage change, negative = inhibition": "inconclusive: -42.7% [cytotoxic] [at 0.369 µM]"}, {"compound": "COc1cc(CN2CCc3c([nH]c4ccccc34)C2)cc(OC)c1", "lipid storage change, negative = inhibition": "inconclusive: 1.68%"}, {"compound": "CC12CCC(=O)N1C(C(=O)N1CCN(c3ccc(C(F)(F)F)cc3[N+](=O)[O-])CC1)CS2", "note": "(configuration not stated)", "lipid storage change, negative = inhibition": "inconclusive: -77.1%"}, {"compound": "Cc1ccc(C(=O)N/C(=C\\c2ccc(F)cc2)C(=O)NCCCn2ccnc2)cc1", "lipid storage change, negative = inhibition": "inconclusive: 69.1%"}, {"compound": "CC(C)(C)c1ccc2c(c1)C(=O)c1ccccc1C2=O", "lipid storage change, negative = inhibition": "inconclusive: -26.6%"}, {"compound": "Cc1nc2sccn2c(=O)c1S(=O)(=O)N1CCN(c2ccc(F)cc2)CC1", "Potency": "inconclusive: 5.8 µM [activator, full curve]"}, {"compound": "CN(C)c1ccc(C(CN)c2c[nH]c3ccccc23)cc1", "note": "(configuration not stated)", "lipid storage change, negative = inhibition": "inconclusive: -0.416%"}, {"compound": "O=C(NCc1ccccc1)c1cc(-c2ccco2)on1", "Potency": "inconclusive: 6.51 µM [activator, single point]"}, {"compound": "COc1cc(C(=O)NCCC(=O)NCCN2CCCCCC2)cc(OC)c1OC", "lipid storage change, negative = inhibition": "inconclusive: -12.4%"}, {"compound": "CCOc1ccc(/C=C2\\SC(N3CCc4ccccc4C3)=NC2=O)cc1", "Potency": "inconclusive: 29.1 µM [falling, partial curve, poor fit]"}, {"compound": "NC(=O)CC[C@@H]1NC(=O)[C@H](CO)NC(=O)c2cc([N+](=O)[O-])cc(I)c2NCCCC[C@@H](C(N)=O)NC(=O)[C@H](Cc2ccc(O)cc2)NC1=O", "lipid storage change, negative = inhibition": "inconclusive: 5.81%"}, {"compound": "O=C(O)COc1ccc2c(c1)O/C(=C\\c1cccs1)C2=O", "Potency": "inconclusive: 0.146 µM [falling, full curve, poor fit]"}, {"compound": "COc1cc2c(cc1OC)C(C(=O)Nc1cccc(C)n1)C(c1cccnc1)N(C)C2=O", "note": "(configuration not stated)", "lipid storage change, negative = inhibition": "inconclusive: 9.42%"}, {"compound": "COCCNC(=O)C(c1ccc(F)cc1)N(C(=O)CCC(=O)Nc1nccs1)c1cccc(C)c1", "note": "(configuration not stated)", "lipid storage change, negative = inhibition": "inconclusive: 76.3%"}, {"compound": "COc1cccc(N(CC(=O)NC2CCCCC2)C(=O)CCCC(=O)Nc2ccccn2)c1", "lipid storage change, negative = inhibition": "inconclusive: 365%"}, {"compound": "CCOC(=O)N1CCC2(CC1)C(C#N)=C(N)OC1=C2C(=O)CCC1", "lipid storage change, negative = inhibition": "inconclusive: 12.5%"}, {"compound": "COc1ccc(CCNC(=O)c2n[nH]c(=O)c3ccccc23)cc1", "lipid storage change, negative = inhibition": "inconclusive: -56.3%"}, {"compound": "C/C(=N\\N1C(=O)c2ccccc2NC1c1ccco1)c1ccccc1O", "note": "(configuration not stated)", "lipid storage change, negative = inhibition": "inconclusive: 11.2%"}, {"compound": "CC(C)=CC(=O)O[C@H]1[C@@H]2[C@H](C)C(=O)O[C@@H]2C[C@@H](C)[C@@H]2[C@@H](O)CC(=O)[C@]21C", "lipid storage change, negative = inhibition": "inconclusive: -9.19%"}, {"compound": "Cc1ccsc1C(=O)OCC(=O)Nc1nnc(-c2ccccc2)o1", "lipid storage change, negative = inhibition": "inconclusive: -4.48%"}, {"compound": "COc1ccc(C(=O)CN(C(=O)c2ccc(Cl)cc2)N2C(=O)C3CCCCC3C2=O)cc1", "note": "(configuration not stated)", "Potency": "inconclusive: 0.164 µM [falling, full curve, poor fit]"}, {"compound": "CCn1c(SCc2cccc(OC)c2)nc2ccccc2c1=O", "Potency": "inconclusive: 25.9 µM [falling, single point]"}, {"compound": "Cc1ccc(C)n1-c1ccc(C(=O)NCC2CCCO2)cc1", "note": "(configuration not stated)", "lipid storage change, negative = inhibition": "inconclusive: 18.3%"}, {"compound": "Cc1cccc(C(=O)OCC(=O)NC(C)CCc2ccccc2)c1", "note": "(configuration not stated)", "lipid storage change, negative = inhibition": "inconclusive: 2.53%"}, {"compound": "O=C(c1cccc(NS(=O)(=O)c2ccc(F)c(F)c2)c1)N1CCN(Cc2ccccc2)CC1", "lipid storage change, negative = inhibition": "inconclusive: -43%"}, {"compound": "COc1ccc(OC)c(NC(=O)c2ccc3c(c2)CCN3S(C)(=O)=O)c1", "Potency": "inconclusive: 29.1 µM [activator, single point]"}, {"compound": "COc1ccccc1OCC(=O)NCCNC(=O)COc1ccccc1OC", "Potency": "inconclusive: 9.2 µM [activator, partial curve]"}, {"compound": "C#Cc1cccc(NC(=O)c2ccc3c(c2)C(=O)N(Cc2cccnc2)C3=O)c1", "lipid storage change, negative = inhibition": "inconclusive: -74.2%"}, {"compound": "CCc1c(C)nc2[nH]nc(NC(=O)C(F)(F)F)n2c1=O", "lipid storage change, negative = inhibition": "inconclusive: -133%"}, {"compound": "O=C(CC(C(=O)N1CCc2ccccc21)n1ccnc1)NCc1cccnc1", "note": "(configuration not stated)", "lipid storage change, negative = inhibition": "inconclusive: 14.8%"}, {"compound": "O=C(C1CC1)N1CCN(c2ccnc3cc(Cl)ccc23)CC1", "lipid storage change, negative = inhibition": "inconclusive: 20.4%"}, {"compound": "COc1ccc(COCC(O)CN2CCC(C(N)=O)CC2)cc1OC", "note": "(configuration not stated)", "Potency": "inconclusive: 0.731 µM [falling, partial curve, poor fit]"}, {"compound": "COc1ccc([N+](=O)[O-])cc1NC(=O)c1ccccc1SC", "lipid storage change, negative = inhibition": "inconclusive: 44.7%"}, {"compound": "CCOC(=O)c1ccc(NC(=O)COc2cc(=O)n(CC)c3ccccc23)cc1", "Potency": "inconclusive: 0.146 µM [activator, full curve, poor fit]"}, {"compound": "COc1ccc(NC(=O)CSc2ccc3ccccc3c2)cc1S(=O)(=O)N1CCCCC1", "lipid storage change, negative = inhibition": "inconclusive: 24%"}, {"compound": "CC(=O)Nc1nnc(CSCc2ccccc2F)s1", "lipid storage change, negative = inhibition": "inconclusive: 3.72%"}, {"compound": "Cc1ccc2nc(N3CCN(C(=O)c4ccco4)CC3)c3nncn3c2c1", "Potency": "inconclusive: 6.51 µM [falling, single point]"}, {"compound": "O=C(OCC(=O)N1CCN(c2ccccc2)CC1)c1cc(Br)ccc1Cl", "Potency": "inconclusive: 0.82 µM [activator, full curve, poor fit]"}, {"compound": "COc1cc(N2C(=O)CC3(CCCC3)CC2=O)cc(OC)c1OC", "lipid storage change, negative = inhibition": "inconclusive: -21%"}, {"compound": "CC(C)c1ccccc1NC(=S)NCc1ccncc1", "lipid storage change, negative = inhibition": "inconclusive: -10.7%"}, {"compound": "O=C(COc1ccc(F)cc1)N(CC1=CCS(=O)(=O)C1)c1ccccc1", "lipid storage change, negative = inhibition": "inconclusive: 24.9%"}, {"compound": "Cc1ccc(CSc2nnc(-c3cccc(S(=O)(=O)N4CCOCC4)c3)n2C2CCCC2)cc1", "lipid storage change, negative = inhibition": "inconclusive: -14.4%"}, {"compound": "O=C(C1CCN(C2CCN(Cc3ccc4c(c3)CCO4)CC2)CC1)N1CCOCC1", "lipid storage change, negative = inhibition": "inconclusive: 22.2%"}, {"compound": "CC(C)(C)c1ccc(C(=O)N/N=C/c2ccccn2)cc1", "lipid storage change, negative = inhibition": "inconclusive: -26.7%"}]}]}
